Measurements taken from the supplement of paper PMC12823440, “Inhibitors supercharge kinase turnover through native proteolytic circuits” (Nature, 2025).
The list shows a part of the results. Hit calls seldom repeat between salt and free forms of one compound.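 In K562 cells expressing nanoluciferase-fused kinases, luminescence was recorded at 4 h intervals between 2 and 18 h, normalized as percent of control with DMSO at 100% and a positive control at 0%. A significant (2 sigma) signal drop marks a time point as decreased. The authors' rule for a hit is not shown and takes in more than the number of time points.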

Protein sequences, listed by entry. Tags and fused reporters are not part of them.
UniProt P29317, whole entry: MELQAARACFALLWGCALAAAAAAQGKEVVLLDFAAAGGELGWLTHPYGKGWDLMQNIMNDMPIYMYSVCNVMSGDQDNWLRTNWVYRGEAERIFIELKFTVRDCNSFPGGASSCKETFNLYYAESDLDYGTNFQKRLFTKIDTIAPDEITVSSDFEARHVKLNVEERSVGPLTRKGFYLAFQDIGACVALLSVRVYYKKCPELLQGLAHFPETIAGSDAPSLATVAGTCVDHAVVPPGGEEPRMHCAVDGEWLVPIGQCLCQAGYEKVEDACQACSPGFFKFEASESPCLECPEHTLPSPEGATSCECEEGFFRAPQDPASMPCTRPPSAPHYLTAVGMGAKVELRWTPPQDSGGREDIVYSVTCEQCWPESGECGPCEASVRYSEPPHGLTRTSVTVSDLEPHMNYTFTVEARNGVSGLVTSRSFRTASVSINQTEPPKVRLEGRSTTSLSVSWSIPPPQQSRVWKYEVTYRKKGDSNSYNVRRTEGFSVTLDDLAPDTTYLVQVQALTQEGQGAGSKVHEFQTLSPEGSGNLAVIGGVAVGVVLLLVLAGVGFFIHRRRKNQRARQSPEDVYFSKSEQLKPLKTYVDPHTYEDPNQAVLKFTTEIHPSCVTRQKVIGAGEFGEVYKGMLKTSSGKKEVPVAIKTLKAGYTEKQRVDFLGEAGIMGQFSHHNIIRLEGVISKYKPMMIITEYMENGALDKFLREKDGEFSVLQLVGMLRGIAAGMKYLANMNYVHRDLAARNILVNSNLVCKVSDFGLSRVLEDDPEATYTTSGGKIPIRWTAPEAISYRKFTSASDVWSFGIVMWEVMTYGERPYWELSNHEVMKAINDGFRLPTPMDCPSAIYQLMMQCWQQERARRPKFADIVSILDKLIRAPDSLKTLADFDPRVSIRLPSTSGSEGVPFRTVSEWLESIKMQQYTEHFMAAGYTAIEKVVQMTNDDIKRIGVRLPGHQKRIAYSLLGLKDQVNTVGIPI
UniProt P21860, whole entry: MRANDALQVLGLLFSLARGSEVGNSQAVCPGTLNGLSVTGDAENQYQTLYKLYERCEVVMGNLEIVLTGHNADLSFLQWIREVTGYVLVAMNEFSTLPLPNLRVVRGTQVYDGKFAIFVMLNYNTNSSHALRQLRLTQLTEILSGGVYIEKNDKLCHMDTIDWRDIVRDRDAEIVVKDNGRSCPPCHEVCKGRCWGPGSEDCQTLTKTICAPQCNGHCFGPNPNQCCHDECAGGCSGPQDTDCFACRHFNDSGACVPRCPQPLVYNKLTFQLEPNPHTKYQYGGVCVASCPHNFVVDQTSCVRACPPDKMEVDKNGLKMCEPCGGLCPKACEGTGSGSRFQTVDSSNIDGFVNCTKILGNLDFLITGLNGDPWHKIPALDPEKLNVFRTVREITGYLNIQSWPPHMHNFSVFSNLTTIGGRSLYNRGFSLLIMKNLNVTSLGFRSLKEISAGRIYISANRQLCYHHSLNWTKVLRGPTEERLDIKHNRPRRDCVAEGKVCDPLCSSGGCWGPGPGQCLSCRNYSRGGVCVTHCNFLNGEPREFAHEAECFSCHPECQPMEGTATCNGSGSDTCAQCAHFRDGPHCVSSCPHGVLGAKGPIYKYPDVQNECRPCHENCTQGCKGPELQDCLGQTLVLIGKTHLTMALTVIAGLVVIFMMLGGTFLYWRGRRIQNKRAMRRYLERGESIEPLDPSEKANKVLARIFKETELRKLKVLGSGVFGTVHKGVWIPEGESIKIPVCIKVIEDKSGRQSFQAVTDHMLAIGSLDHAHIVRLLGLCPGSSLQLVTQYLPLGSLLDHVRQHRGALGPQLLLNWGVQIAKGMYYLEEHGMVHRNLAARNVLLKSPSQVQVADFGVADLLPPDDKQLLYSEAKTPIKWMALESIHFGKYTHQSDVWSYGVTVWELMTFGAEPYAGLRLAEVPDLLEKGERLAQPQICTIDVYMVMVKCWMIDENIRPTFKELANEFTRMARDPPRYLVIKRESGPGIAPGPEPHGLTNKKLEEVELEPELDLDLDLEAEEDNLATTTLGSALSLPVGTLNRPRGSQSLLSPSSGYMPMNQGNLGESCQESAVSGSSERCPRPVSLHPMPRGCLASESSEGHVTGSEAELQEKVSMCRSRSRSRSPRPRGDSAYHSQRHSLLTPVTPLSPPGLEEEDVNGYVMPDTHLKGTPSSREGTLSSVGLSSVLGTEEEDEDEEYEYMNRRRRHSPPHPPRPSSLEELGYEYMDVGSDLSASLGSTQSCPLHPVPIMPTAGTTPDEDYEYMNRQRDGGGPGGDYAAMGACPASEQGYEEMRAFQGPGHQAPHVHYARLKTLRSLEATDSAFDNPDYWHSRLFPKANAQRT
UniProt Q15303, whole entry R711C: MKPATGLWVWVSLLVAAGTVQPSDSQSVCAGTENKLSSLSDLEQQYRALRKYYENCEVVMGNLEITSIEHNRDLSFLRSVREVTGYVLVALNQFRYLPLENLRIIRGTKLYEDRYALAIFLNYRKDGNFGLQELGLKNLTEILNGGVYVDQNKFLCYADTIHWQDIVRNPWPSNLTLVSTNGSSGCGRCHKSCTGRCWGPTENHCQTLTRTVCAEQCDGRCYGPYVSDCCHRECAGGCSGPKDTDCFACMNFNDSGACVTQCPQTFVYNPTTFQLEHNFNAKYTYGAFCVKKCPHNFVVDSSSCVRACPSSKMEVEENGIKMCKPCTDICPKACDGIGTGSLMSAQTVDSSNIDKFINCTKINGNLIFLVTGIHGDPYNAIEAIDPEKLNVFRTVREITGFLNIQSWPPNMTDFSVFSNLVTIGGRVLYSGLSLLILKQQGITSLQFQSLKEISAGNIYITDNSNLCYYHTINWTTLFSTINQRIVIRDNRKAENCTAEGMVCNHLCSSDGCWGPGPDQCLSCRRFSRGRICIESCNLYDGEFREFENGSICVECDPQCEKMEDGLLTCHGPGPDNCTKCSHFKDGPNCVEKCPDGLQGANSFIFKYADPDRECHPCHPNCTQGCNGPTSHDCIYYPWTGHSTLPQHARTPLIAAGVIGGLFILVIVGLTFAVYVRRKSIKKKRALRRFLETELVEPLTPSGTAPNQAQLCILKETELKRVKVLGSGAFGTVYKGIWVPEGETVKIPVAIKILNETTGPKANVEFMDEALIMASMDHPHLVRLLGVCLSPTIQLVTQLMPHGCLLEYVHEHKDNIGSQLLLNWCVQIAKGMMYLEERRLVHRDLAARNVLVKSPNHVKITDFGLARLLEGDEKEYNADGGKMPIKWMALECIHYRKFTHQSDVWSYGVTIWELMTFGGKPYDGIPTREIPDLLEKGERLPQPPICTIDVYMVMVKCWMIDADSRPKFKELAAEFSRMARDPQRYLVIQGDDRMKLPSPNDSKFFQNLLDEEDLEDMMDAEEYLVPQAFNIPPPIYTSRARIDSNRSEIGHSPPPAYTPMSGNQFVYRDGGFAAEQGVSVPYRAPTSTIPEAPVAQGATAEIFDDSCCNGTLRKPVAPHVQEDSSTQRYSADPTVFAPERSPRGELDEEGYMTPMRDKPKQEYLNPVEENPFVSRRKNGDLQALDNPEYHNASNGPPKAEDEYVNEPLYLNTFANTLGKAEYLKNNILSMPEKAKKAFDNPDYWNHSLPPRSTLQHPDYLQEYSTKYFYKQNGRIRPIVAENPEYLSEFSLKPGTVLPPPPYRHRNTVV

Assays:
Experiment in all cases: kinase-Nluc reporter destabilization hit call (1 = scored as downregulated) (binary); higher = compound decreases kinase abundance
Conditions in all cases: K562; 2-18 h
[1] = target: EGFR (UniProt P00533)
[2] = target: EGFR_G719S (UniProt P00533)
[3] = target: EGFR_G719S_T790M (UniProt P00533)
[4] = target: EGFR_L718V (UniProt P00533)
[5] = target: EGFR_L858R (UniProt P00533)
[6] = target: EGFR_L861Q (UniProt P00533)
[7] = target: EGFR_T790M (UniProt P00533)
[8] = target: EPHA2 (UniProt P29317)
[9] = target: ERBB3 (UniProt P21860)
[10] = target: ERBB4_R711C (clone: ERBB4_mut) (UniProt Q15303)

Measured: kinase-Nluc reporter destabilization hit call

CN1C(=O)N[C@H](Cc2c[nH]c3c(Cl)cccc23)C1=O [Necrostatin 2] (10 µM)
inactive: [1] 0 | [2] 0 | [3] 0 | [4] 0 | [5] 0 | [6] 0 | [7] 0 | [8] 0 | [9] 0 | [10] 0

Nc1ccc(-c2cnc(N)c(-c3ccc(Cl)cc3)c2)cn1 (10 µM)
inactive: [1] 0 | [2] 0 | [3] 0 | [4] 0 | [5] 0 | [6] 0 | [7] 0 | [8] 0 | [9] 0 | [10] 0

CNC(=O)c1c(F)cccc1Nc1nc(Nc2cc3c(cc2OC)CCN3C(=O)CN(C)C)nc2[nH]ccc12 (10 µM)
inactive: [1] 0 | [2] 0 | [3] 0 | [4] 0 | [5] 0 | [6] 0 | [7] 0 | [8] 0 | [9] 0 | [10] 0
